# PMC10657444, “Design and evaluation of tadpole-like conformational antimicrobial peptides” (Communications Biology, 2023)
# “And” between values parts separate entries of the source, which are not always exact repeats. Equal entries are not always repeated. This continues a long series; more values of the same kind are listed elsewhere. Residues, ends and D or L forms follow the SMILES beside them.
# Experiments:
# [1] = tested on: K. pneumoniae ATCC 700603; test: Membrane permeability, SYTOX Green; format: cell-based, Klebsiella pneumoniae
# Procedure: Fluorescent probe SYTOX^TM Green (Invitrogen/ Life Technologies, S7020) was used to analyze the effect of HT2 and RI-HT2 on membrane permeability of MRSA USA 300 and K. pneumoniae ATCC 700603 as described elsewhere. SYTOX^TM Green is a DNA binding dye that is fluorescent when bound to nucleic acids and only enters cells with compromised plasma membranes. MRSA USA 300 and K. pneumoniae ATCC 700603 were cultured in LB broth to mid log phase at 37 °C and washed with PBS and resuspended (OD595 ≈ 0.1) in the same buffer. SYTOX^TM Green was added into the cell suspension with a final concentration of 5 μM and being kept in dark for 20 min. 98 µL pre-treated cell suspension was transferred into wells of 96-well glass black plates. Then, 2 µL of compound or DMSO were added to initiate the reaction. The final concentrations of HT2 and RI-HT2 were 1 ×, 2 ×, 4 × and 8 × MIC. Fluorescence strength was measured with excitation/emission wavelength of 485/528 nm every 5 min for 60 min.
# [2] = tested on: K. pneumoniae ATCC 700603; test: Membrane depolarization assay, DiSC3(5); format: cell-based, Klebsiella pneumoniae
# Procedure: MRSA USA 300 and K. pneumoniae ATCC 700603 were inoculated into 5 mL of LB and shaken at 37°C and 225 rpm to OD600 ≈ 0.5 (i.e., mid-logarithmic phase). Bacteria were collected by centrifugation at 8000 rpm for 5 min, and washed twice with assay buffer (5 mM HEPES, 20 mM glucose, 10 mM KCl, pH 7.2). Bacteria were resuspended in the assay buffer to OD595 ≈ 0.1. DiSC3(5) was added to the cells at final concentration of 0.3 µM, wrapped with aluminum foil, and incubated at 37°C, until a stable fluorescence was observed. Two microliter of compound or DMSO were transferred into 96-well black walled polystyrene plates, to which was added 98 µL per well of the dye-saturated bacterial cells to initiate the reaction. The final concentration of HT2 and RI-HT2 were 1 ×, 2 ×, 4 × and 8 × MIC. Plates were immediately read on an Envison at λex = 622 nm/ λem = 670 nm with a kinetic program (reading every 1 min for 10 min) until the maximal intensity achieved was observed.
smiles,measurement,setting,value
CC[C@H](C)[C@H](NC(=O)[C@H](CCCNC(=N)N)NC(=O)[C@H](CCCNC(=N)N)NC(=O)[C@H](CC(C)C)NC(=O)[C@H](Cc1ccccc1)NC(=O)[C@@H](N)CCCNC(=N)N)C(=O)N[C@@H](Cc1ccccc1)C(=O)N[C@@H](Cc1ccccc1)C(=O)N[C@@H](Cc1ccccc1)C(=O)N[C@@H](Cc1ccccc1)C(N)=O [HT2] (H-RFLRRIFFFF-NH2),Fluorescence intensity,"[1]; 2 × MIC, time 40 min",5061266 and 5030558 and 4874244
same,Fluorescence intensity,"[1]; 2 × MIC, time 45 min",5677448 and 5612956 and 5636688
same,Fluorescence intensity,"[1]; 2 × MIC, time 50 min",5874321 and 5912570 and 5731926
same,Fluorescence intensity,"[1]; 2 × MIC, time 55 min",6092226 and 5904835 and 6151856
same,Fluorescence intensity,"[1]; 2 × MIC, time 60 min",6730024 and 6627110 and 6610916
same,Fluorescence intensity,"[1]; 4 × MIC, time 40 min",8390482 and 8422816 and 8417436
same,Fluorescence intensity,"[1]; 4 × MIC, time 45 min",9115897 and 9151186 and 9254166
same,Fluorescence intensity,"[1]; 4 × MIC, time 50 min",9526499 and 9527543 and 9626189
same,Fluorescence intensity,"[1]; 4 × MIC, time 55 min",9745162 and 9649049 and 9682277
same,Fluorescence intensity,"[1]; 4 × MIC, time 60 min",9908766 and 10130725 and 10402149
same,Fluorescence intensity,"[1]; 8 × MIC, time 40 min",8748208 and 10395943
same,Fluorescence intensity,"[1]; 8 × MIC, time 45 min",11305392 and 9590655 and 11345669
same,Fluorescence intensity,"[1]; 8 × MIC, time 50 min",12053517 and 10053693 and 11966533
same,Fluorescence intensity,"[1]; 8 × MIC, time 55 min",12345023 and 10369365 and 12497110
same,Fluorescence intensity,"[1]; 8 × MIC, time 60 min",13012399 and 10786283 and 13085859
same,Fluorescence intensity,"[1]; MIC, time 45 min",2340358 and 2341777 and 2332380
same,Fluorescence intensity,"[1]; MIC, time 50 min",2598680 and 2588564 and 2527431
same,Fluorescence intensity,"[1]; MIC, time 55 min",2831696 and 2611342 and 2750034
same,Fluorescence intensity,"[1]; MIC, time 60 min",2981626 and 2803081 and 2888135
same,Fluorescence intensity,"[2]; 2 × MIC, time 0 min",302680 and 276617 and 304573
same,Fluorescence intensity,"[2]; 2 × MIC, time 2 min",271312 and 250021 and 261002
same,Fluorescence intensity,"[2]; 2 × MIC, time 3 min",455375 and 430583 and 456972
same,Fluorescence intensity,"[2]; 2 × MIC, time 4 min",478620 and 434055 and 444587
same,Fluorescence intensity,"[2]; 2 × MIC, time 5 min",507397 and 451720 and 418387
same,Fluorescence intensity,"[2]; 2 × MIC, time 6 min",499690 and 417245 and 460066
same,Fluorescence intensity,"[2]; 2 × MIC, time 7 min",470784 and 429576 and 391772
same,Fluorescence intensity,"[2]; 2 × MIC, time 8 min",467039 and 421550 and 411213
same,Fluorescence intensity,"[2]; 2 × MIC, time 9 min",480548 and 429745 and 436234
same,Fluorescence intensity,"[2]; 2 × MIC, time 10 min",489139 and 462791 and 445939
same,Fluorescence intensity,"[2]; 4 × MIC, time 0 min",346286 and 308869 and 295458
same,Fluorescence intensity,"[2]; 4 × MIC, time 2 min",313413 and 282521 and 275601
same,Fluorescence intensity,"[2]; 4 × MIC, time 3 min",464906 and 449225 and 482726
same,Fluorescence intensity,"[2]; 4 × MIC, time 4 min",487468 and 430316 and 569485
same,Fluorescence intensity,"[2]; 4 × MIC, time 5 min",504915 and 466474 and 565850
same,Fluorescence intensity,"[2]; 4 × MIC, time 6 min",535985 and 484757 and 502662
same,Fluorescence intensity,"[2]; 4 × MIC, time 7 min",602636 and 507164 and 508142
same,Fluorescence intensity,"[2]; 4 × MIC, time 8 min",620584 and 493354 and 494340
same,Fluorescence intensity,"[2]; 4 × MIC, time 9 min",605997 and 514932 and 521722
same,Fluorescence intensity,"[2]; 4 × MIC, time 10 min",587457 and 523583 and 516616
same,Fluorescence intensity,"[2]; 8 × MIC, time 0 min",316720 and 318953 and 287601
same,Fluorescence intensity,"[2]; 8 × MIC, time 2 min",306592 and 281292 and 278949
same,Fluorescence intensity,"[2]; 8 × MIC, time 3 min",509097 and 487092 and 466724
same,Fluorescence intensity,"[2]; 8 × MIC, time 4 min",554570 and 519763 and 475828
same,Fluorescence intensity,"[2]; 8 × MIC, time 5 min",559925 and 528438 and 515396
same,Fluorescence intensity,"[2]; 8 × MIC, time 6 min",604076 and 554173 and 584073
same,Fluorescence intensity,"[2]; 8 × MIC, time 7 min",675156 and 586320 and 620163
same,Fluorescence intensity,"[2]; 8 × MIC, time 8 min",678438 and 605666 and 584257
same,Fluorescence intensity,"[2]; 8 × MIC, time 9 min",634065 and 620346 and 585359
same,Fluorescence intensity,"[2]; 8 × MIC, time 10 min",631655 and 607518 and 607775
same,Fluorescence intensity,"[2]; MIC, time 0 min",265359 and 273203 and 280202
same,Fluorescence intensity,"[2]; MIC, time 2 min",248778 and 258601 and 249952
same,Fluorescence intensity,"[2]; MIC, time 3 min",428479 and 457587 and 426641
same,Fluorescence intensity,"[2]; MIC, time 4 min",445392 and 457798 and 421183
same,Fluorescence intensity,"[2]; MIC, time 5 min",443463 and 444683 and 410451
same,Fluorescence intensity,"[2]; MIC, time 6 min",393228 and 408494 and 378335
same,Fluorescence intensity,"[2]; MIC, time 7 min",372004 and 372507 and 351114
same,Fluorescence intensity,"[2]; MIC, time 8 min",379853 and 385402 and 371516
same,Fluorescence intensity,"[2]; MIC, time 9 min",348331 and 385494 and 353788
same,Fluorescence intensity,"[2]; MIC, time 10 min",352784 and 382102 and 364571
